Values from PubChem BioAssay AID1259425 (University of Nebraska Medical Center, 2018).
Shown is one part, drawn at random, of about 14,000 deposited reagents. Not all columns of the deposit are shown. No sequences are given here. Not stated in the record: the time to read-out.

Screen: 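Compare each knockdown with KSR1 silencing using changes in marker transcripts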 (primary screen)
Cell system: HCT116 human colon cancer cells
Reagents: siRNA pool against human genes, 50 nM siRNA
Read-out: 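mRNA of six signature genes measured together by branched-DNA assay after 50 nM siRNA pool, blank removed, divided by geometric mean of two housekeeping genes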
Scale: BNIP3L mRNA: higher = more BNIP3L transcript after knockdown

After knock-down of NES, the screen gave BNIP3L mRNA, set 1 = 0.121.
After knock-down of CSK the results were BNIP3L mRNA, set 1 = 0.0936.
With knock-down of PRKAG3, the screen gave BNIP3L mRNA, set 1 = 0.216.
Silencing of SEMA3F resulted in: BNIP3L mRNA, set 1 = 0.0989.
Against DAZ3, the values are BNIP3L mRNA, set 1 = 0.0844.
After knock-down of AEBP2, the record shows BNIP3L mRNA, set 1 = 0.0487.
After knock-down of HDC, the record shows BNIP3L mRNA, set 1 = 0.0917.
Silencing of KRCC1 resulted in: BNIP3L mRNA, set 1 = 0.215.
Depletion of BUD13 came out at: BNIP3L mRNA, set 1 = 0.0612.
After knock-down of WTAP, the screen gave BNIP3L mRNA, set 1 = 0.189.
Depletion of LRRC27 came out at: BNIP3L mRNA, set 1 = 0.105.
For GUCY1A2, the values are BNIP3L mRNA, set 1 = 0.0907.
KAT2A scored BNIP3L mRNA, set 1 = 0.0875.
After knock-down of DLX2, the record shows BNIP3L mRNA, set 1 = 0.143.
RGP1 showed BNIP3L mRNA, set 1 = 0.218.
After knock-down of PHKG1, the record shows BNIP3L mRNA, set 1 = 0.0722.
With knock-down of AQP8 the results were BNIP3L mRNA, set 1 = 0.0648.
With knock-down of DOK4, the record shows BNIP3L mRNA, set 1 = 0.0756.
Knock-down of KIF5A came out at: BNIP3L mRNA, set 1 = 0.0525.
POFUT2 scored BNIP3L mRNA, set 1 = 0.0689.
After knock-down of RALBP1, the screen gave BNIP3L mRNA, set 1 = 0.0759.
PHIP scored BNIP3L mRNA, set 1 = 0.137.
Silencing of TCIM resulted in: BNIP3L mRNA, set 1 = 0.175.
With knock-down of LZTFL1, the screen gave BNIP3L mRNA, set 1 = 0.0971.
Depletion of ZNF346 resulted in: BNIP3L mRNA, set 1 = 0.0915.
With knock-down of CCT8, the screen gave BNIP3L mRNA, set 1 = 0.153.
Against MYL6, the entry reads BNIP3L mRNA, set 1 = 0.286.
ATXN3 gave BNIP3L mRNA, set 1 = 0.081.
